Measured values taken from article PMC11282193.
For at least one entry, the source does not settle the construct or the ends of the probe. For part of these data: No signal at the amounts used counts as a negative.

Tests used:
[1] = target: FoxO1-PM (phospho-mimetic) (mouse) (UniProt Q9R1E0); experiment: EMSA; details: EMSA: 20 mM Tris-HCl pH 8.0, 40 mM KCl, 5% glycerol, 0.4 mM DTT, 0.2 mM EDTA, 2 mM MgCl2, 1 mg/ml BSA, 20 ng poly(dI-dC), on ice 15 min, 50 ng protein; recombinant protein; protein details: GST removed by PreScission (general method); label: 32P end label
[2] = target: FoxO1-PR (phospho-resistant) S209A,S215A,S218A,T228A,S232A,S243A (mouse) (UniProt Q9R1E0); experiment: EMSA; details: pre-incubated with Mst1; EMSA: 20 mM Tris-HCl pH 8.0, 40 mM KCl, 5% glycerol, 0.4 mM DTT, 0.2 mM EDTA, 2 mM MgCl2, 1 mg/ml BSA, 20 ng poly(dI-dC), on ice 15 min, 50 ng protein; recombinant protein; protein details: GST removed by PreScission (general method); label: 32P end label
[3] = target: FoxO1-WT (mouse) (UniProt Q9R1E0); experiment: EMSA; details: without Mst1; EMSA: 20 mM Tris-HCl pH 8.0, 40 mM KCl, 5% glycerol, 0.4 mM DTT, 0.2 mM EDTA, 2 mM MgCl2, 1 mg/ml BSA, 20 ng poly(dI-dC), on ice 15 min, 50 ng protein; recombinant protein; protein details: GST removed by PreScission (general method); label: 32P end label
[4] = target: FoxO1(S209A) + Mst1 (mouse) (UniProt Q9R1E0); experiment: pull-down; details: with Mst1; pull-down (1x buffer): 10 mM HEPES pH 8, 50 mM KCl, 2.5 mM MgCl2, 1 mM EDTA, 1 mM DTT, 0.1% IGEPAL, 4 C 2 h; recombinant protein; label: 5' biotin on sense strand
[5] = target: FoxO1-PM (phospho-mimetic) (mouse) (UniProt Q9R1E0); experiment: pull-down; details: pull-down (1x buffer): 10 mM HEPES pH 8, 50 mM KCl, 2.5 mM MgCl2, 1 mM EDTA, 1 mM DTT, 0.1% IGEPAL, 4 C 2 h; recombinant protein; protein details: GST removed by PreScission (general method); label: 5' biotin on sense strand
[6] = target: FoxO1-PR (phospho-resistant) S209A,S215A,S218A,T228A,S232A,S243A (mouse) (UniProt Q9R1E0); experiment: pull-down; details: with Mst1; pull-down (1x buffer): 10 mM HEPES pH 8, 50 mM KCl, 2.5 mM MgCl2, 1 mM EDTA, 1 mM DTT, 0.1% IGEPAL, 4 C 2 h; recombinant protein; protein details: GST removed by PreScission (general method); label: 5' biotin on sense strand

Sequence	binding result [1]	binding result [2]	binding result [3]	binding result [4]	binding result [5]	binding result [6]
CCTTGTTTACGGGTTGTTTACGGGTTGTTTACCC (double strand) [3xDBE EMSA probe]	no binding	binds	binds			
CCTTGTTTACGGGTTGTTTACGGGTTGTTTACCC (double strand) [WT-3xDBE (Biotin-FHRE-wild type)]				no binding	no binding	binds
